Experimental data published in US20060216730A1, “Novel human protein kinases and protein kinase-like enzymes” (SUGEN, INC., priority 1999, published 2006).

Tested on: kinase genes SGK187, SGK124, SGK386, SGK003, SGK077, SGK093, SGK074, SGK396
Assay: Tissue array gene expression (cDNA libraries on nylon probed with labeled kinase genes; includes compound-treated cell lines)
Parameters: species or system human
[1] = HEPM cells 3d TGFB1, detergent + DNase, Normal, asym cDNA sample
[2] = tissue array, cDNA from HEPM cells, 3d treatment, detergent + DNase, asym

Question: For TGFB1, which “Normalized expression value SGK003 ID#NA_22” value [1] is on record?
Answer: Its value is 0.

Question: And the “Normalized expression value SGK074 ID#NA_32” value [1]?
Answer: The value was 26,232.

Question: What about the “Normalized expression value SGK093 ID#NA_31” value [1] of the same substance?
Answer: Its value is 0.

Question: And the “Normalized expression value SGK124 ID#NA_9” value [1]?
Answer: Its value is 134.

Question: And the “Normalized expression value SGK187 ID#NA_1” value [1]?
Answer: Its value is 69.

Question: And the “Normalized expression value SGK386 ID#NA_21” value [1]?
Answer: The value was 0.

Question: And the “Normalized expression value SGK396 ID#NA_43” value [1]?
Answer: The value was 166.

Question: What about the “Normalized expression value SGK003 ID#NA_22” value [2] of the same substance?
Answer: Its value is 0.

Question: What about the “Normalized expression value SGK074 ID#NA_32” value [2] of the same substance?
Answer: The value was 26,232.

Question: What about the “Normalized expression value SGK093 ID#NA_31” value [2] of the same substance?
Answer: Its value is 0.

Question: What about the “Normalized expression value SGK124 ID#NA_9” value [2] of the same substance?
Answer: The value was 134.

Question: And the “Normalized expression value SGK187 ID#NA_1” value [2]?
Answer: Its value is 69.

Question: And the “Normalized expression value SGK386 ID#NA_21” value [2]?
Answer: Its value is 0.

Question: What about the “Normalized expression value SGK396 ID#NA_43” value [2] of the same substance?
Answer: Its value is 166.
